Measurements published in patent US7572809B2, “Isoquinoline aminopyrazole derivatives” (Hoffmann-La Roche Inc., priority 2005, dated 2009).
Some of these results come from one statement about several compounds together. Some compounds share one range, which may span the group rather than tell each member.

Columns and labels:
[1] = biological target: T1, Aurora A kinase (Homo sapiens, UniProt O14965); experiment: IC50 determination for inhibitors of Aurora A kinase (ELISA, GST-Histone H3 substrate); format: biochemical; conditions: mutant Aurora A kinase, 30 μM ATP, 40 minutes
T1 sequence (O14965 1-403): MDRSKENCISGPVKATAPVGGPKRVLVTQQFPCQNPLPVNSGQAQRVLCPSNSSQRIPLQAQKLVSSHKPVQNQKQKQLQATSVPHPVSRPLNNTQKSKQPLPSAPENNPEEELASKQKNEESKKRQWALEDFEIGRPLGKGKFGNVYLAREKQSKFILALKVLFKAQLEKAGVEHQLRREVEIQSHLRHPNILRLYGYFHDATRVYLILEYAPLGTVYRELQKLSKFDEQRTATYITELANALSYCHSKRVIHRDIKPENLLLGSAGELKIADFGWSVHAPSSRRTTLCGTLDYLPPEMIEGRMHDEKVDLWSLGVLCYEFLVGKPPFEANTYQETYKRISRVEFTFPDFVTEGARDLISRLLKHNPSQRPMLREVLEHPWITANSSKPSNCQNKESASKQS

[2] = tested on: HCT 116 cells; experiment: Viability assay in HCT 116 cells (CellTiter-Glo); format: cell-based; conditions: HCT 116 human colon carcinoma cells, 5 days incubation
Protocol: Viability Assay in HCT 116 Cells
A viability assay was performed using the CellTiter-Glo® Luminescent Cell Viability Assay (see Promega Corporation's Technical Bulletin No. 288, pp. 1-11 [revised February, 2004] which is hereby incorporated by reference in its entirety). This assay is a homogeneous method of determining the number of viable cells in culture based on quantitation of the ATP present, an indicator of metabolically active cells. The assay is designed for use with multiwell formats, making it ideal for automated high-throughput screening (HTS), cell proliferation and cytotoxicity assays. The homogeneous assay procedure involves adding a single reagent (containing luciferase, luciferan substrate, and buffer) directly to cells cultured in serum-supplemented medium. Cell washing, removal of medium and multiple pipetting steps are not required. The system detects as few as 15 cells/well in a 384-well format in 10 minutes after adding reagent and mixing.
The homogeneous “add-mix-measure” format results in cell lysis and generation of a luminescent signal proportional to the amount of ATP present. The amount of ATP is directly proportional to the number of cells present in culture. The above-referenced assay generates a “glow-type” luminescent signal, produced by the luciferase reaction, which has a half-life generally greater than five hours, depending on cell type and medium used. The extended half-life eliminates the need to use reagent injectors and provides flexibility for continuous or batch mode processing of multiple plates. The unique homogeneous format avoids errors that may be introduced by other ATP measurement methods that require multiple steps.
HCT 116 cells (human colon carcinoma, ATCC-No. CCl-247) were cultivated in RPMI 1640 medium with GlutaMAX™ I (cell culture media that contains L-Alanyl-L-Glutamine [a stabilized form/source of L-Glutamine] from Invitrogen, Cat-No. 61870-010), 5% Fetal Calf Serum (FCS, Sigma Cat-No. F4135 (FBS)); 100 Units/ml penicillin/100 μg/ml streptomycin (=Pen/Strep from Invitrogen Cat. No. 15140). For the assay the cells were seeded in 384 well plates, 1000 cells per well, in the same medium. The next day the test compounds were added in various concentrations ranging from 30 μM to 0.0015 μM (10 concentrations, 1:3 diluted). After 5 days the viability assay was performed according to the instructions of the manufacturer. In brief: the cell-plate was equilibrated to room temperature for approximately 30 minutes and then the CellTiter-Glo™ reagent (which contains luciferase, luciferan substrate, and buffer) was added. The contents were carefully mixed for 15 minutes to induce cell lysis. After 45 minutes the luminescent signal was measured in Victor 2, (scanning multiwell spectrophotometer, Wallac).
1st. Day: • Medium: RPMI 1640 with GlutaMAX™ I (Invitrogen, Cat-No. 61870), 5% FCS (Sigma Cat.-No. F4135), Pen/Strep (Invitrogen, Cat No. 15140). • HCT116 (ATCC-No. CCl-247): 1000 cells in 60 μl per well of 384 well plate (Greiner 781098, μClear-plate white) • After seeding incubate plates 24 h at 37° C., 5% CO2 2nd. Day: Induction (Treatment with Compounds, 10 Concentrations):
In order to achieve a final concentration of 30 μM as highest concentration 3.5 μl of 10 mM compound stock solution were added directly to 163 μl media. Then step e) of the dilution procedure described below, was followed.
In order to achieve the second highest to the lowest concentrations, a serial dilution with dilution steps of 1:3 was followed according to the procedure (a-e) as described here below: a) for the second highest concentration add 10 μl of 10 mM stock solution of compound to 20 μl dimethylsulfoxide (DMSO) b) dilute 8×1:3 (always 10 μl to 20 μl DMSO) in this DMSO dilution row (results in 9 wells with concentrations from 3333.3 μM to 0.51 μM) c) dilute each concentration 1:47.6 (3.5 μl compound dilution to 163 μl media) […]

| Compound | IC50 Aurora A kinase inhibition [1] [nM] | IC50 [2] [nM] |
| --- | --- | --- |
| COc1ccc(Oc2nc(Nc3cc(C)[nH]n3)cc3ccccc23)cc1 [Example 10, [1-(4-Methoxy-phenoxy)-isoquinolin-3-yl]-(5-methyl-1H-pyrazol-3-yl)-amine] | 1 to 15000 | 10 to 15000 |
| Cc1cc(Nc2cc3ccccc3c(OC(C)C)n2)n[nH]1 [Example 32, (1-Isopropoxy-isoquinolin-3-yl)-(5-methyl-1H-pyrazol-3-yl)-amine] | 1 to 15000 | 10 to 15000 |
| COc1ccc2c(OCc3ccccc3)nc(Nc3cc(C)[nH]n3)cc2c1 [Example 36, (1-Benzyloxy-6-methoxy-isoquinolin-3-yl)-(5-methyl-1H-pyrazol-3-yl)-amine] | 1 to 15000 | 10 to 15000 |
| COc1cccc(Oc2nc(Nc3cc(C)[nH]n3)cc3cc(OC)ccc23)c1 [Example 44, [1-(3-Methoxy-phenoxy)-6-methoxy-isoquinolin-3-yl]-(5-methyl-1H-pyrazol-3-yl)-amine] | 1 to 15000 | 10 to 15000 |
| COc1ccc2c(Oc3ccccc3Cl)nc(Nc3cc(C)[nH]n3)cc2c1 [Example 47, [1-(2-Chloro-phenoxy)-6-methoxy-isoquinolin-3-yl]-(5-methyl-1H-pyrazol-3-yl)-amine] | 1 to 15000 | 10 to 15000 |
| CCOCCOCCOc1nc(Nc2cc(C)[nH]n2)cc2cc(OC)ccc12 [Example 51, {1-[2-(2-Ethoxy-ethoxy)-ethoxy]-6-methoxy-isoquinolin-3-yl}-(5-methyl-1H-pyrazol-3-yl)-amine] | 1 to 15000 | 10 to 15000 |
| COc1ccc2c(OC3CCCCC3)nc(Nc3cc(C)[nH]n3)cc2c1 [Example 57, (1-Cyclohexyloxy-6-methoxy-isoquinolin-3-yl)-(5-methyl-1H-pyrazol-3-yl)-amine] | 1 to 15000 | 10 to 15000 |
| COc1cccc2c(Oc3ccc(NC(C)=O)cc3)nc(Nc3cc(C)[nH]n3)cc12 [Example 60, N-{4-[5-Methoxy-3-(5-methyl-1H-pyrazol-3-ylamino)-isoquinolin-1-yloxy]-phenyl}-acetamide] | 1 to 15000 | 10 to 15000 |
| Cc1cc(Nc2cc3c(C)cccc3c(Oc3ccc(F)cc3)n2)n[nH]1 [Example 81, [1-(4-Fluoro-phenoxy)-5-methyl-isoquinolin-3-yl]-(5-methyl-1H-pyrazol-3-yl)-amine] | 1 to 15000 | 10 to 15000 |
| CCOc1nc(Nc2cc(C)[nH]n2)cc2cc(OC)c(OC)cc12 [Example 89, (1-Ethoxy-6,7-dimethoxy-isoquinolin-3-yl)-(5-methyl-1H-pyrazol-3-yl)-amine] | 1 to 15000 | 10 to 15000 |
| COc1ccc2c(OC)nc(Nc3cc(C)[nH]n3)cc2c1OC [Example 92, (1-Methoxy-5,6-dimethoxy-isoquinolin-3-yl)-(5-methyl-1H-pyrazol-3-yl)-amine] | 1 to 15000 | 10 to 15000 |
| COc1cc2cc(Nc3cc(C)[nH]n3)nc(-c3ccc(F)cc3F)c2cc1OC [Example 151, [1-(2,4-Difluoro-phenyl)-6,7-dimethoxy-isoquinolin-3-yl]-(5-methyl-1H-pyrazol-3-yl)-amine] | 1 to 15000 | 10 to 15000 |
| COc1cccc2c(-c3ccc(F)cc3F)nc(Nc3cc(C)[nH]n3)cc12 [Example 210, [1-(2,4-Difluoro-phenyl)-5-methoxy-isoquinolin-3-yl]-(5-methyl-1H-pyrazol-3-yl)-amine] |  | 10 to 15000 |
| COc1ccc2c(-c3ccccc3F)nc(Nc3cc(C)[nH]n3)cc2c1OC [Example 215, [1-(2-Fluoro-phenyl)-5,6-dimethoxy-isoquinolin-3-yl]-(5-methyl-1H-pyrazol-3-yl)-amine] |  | 10 to 15000 |
| COc1ccc2c(-c3ccccc3)nc(Nc3cc(C)[nH]n3)cc2c1OC [Example 217, (5,6-Dimethoxy-1-phenyl-isoquinolin-3-yl)-(5-methyl-1H-pyrazol-3-yl)-amine] |  | 10 to 15000 |
| Clc1ccc(-c2nc(Nc3cc[nH]n3)cc3ccccc23)cc1 [Example 238, [1-(4-Chloro-phenyl)-isoquinolin-3-yl]-(1H-pyrazol-3-yl)-amine] |  | 10 to 15000 |
| N#Cc1ccc(-c2nc(Nc3cc[nH]n3)cc3ccccc23)cc1 [Example 243, 4-[3-(1H-Pyrazol-3-ylamino)-isoquinolin-1-yl]-benzonitrile] |  | 10 to 15000 |
| COc1ccc2c(-c3ccccc3)nc(Nc3cc[nH]n3)cc2c1 [Example 249, (6-Methoxy-1-phenyl-isoquinolin-3-yl)-(1H-pyrazol-3-yl)-amine] |  | 10 to 15000 |
| COc1ccc2c(-c3ccccc3F)nc(Nc3cc[nH]n3)cc2c1 [Example 253, [1-(2-Fluoro-phenyl)-6-methoxy-isoquinolin-3-yl]-(1H-pyrazol-3-yl)-amine] |  | 10 to 15000 |
| COc1ccc2c(-c3cscc3C)nc(Nc3cc[nH]n3)cc2c1 [Example 271, [6-Methoxy-1-(4-methyl-thiophen-3-yl)-isoquinolin-3-yl]-(1H-pyrazol-3-yl)-amine] |  | 10 to 15000 |
| COc1ccc2c(Nc3ccc(C#N)cc3)nc(Nc3cc(C)[nH]n3)cc2c1OC [Example 279, 4-[5,6-Dimethoxy-3-(5-methyl-1H-pyrazol-3-ylamino)-isoquinolin-1-ylamino]-benzonitrile] |  | 10 to 15000 |
| Cc1cc(Nc2cc3ccccc3c(Nc3ccncc3)n2)n[nH]1 [Example 283, N^3-(5-Methyl-1H-pyrazol-3-yl)-N^1-pyridin-4-yl-isoquinoline-1,3-diamine] |  | 10 to 15000 |
| Cc1cc(Nc2cc3ccccc3c(Nc3cccnc3)n2)n[nH]1 [Example 292, N^3-(5-methyl-1H-pyrazol-3-yl)-N^1-pyridin-3-yl-isoquinoline-1,3-diamine] |  | 10 to 15000 |
| COc1ccc2cc(Nc3cc(C)[nH]n3)nc(Nc3ccc(C#N)cc3)c2c1 [Example 298, 4-[7-Methoxy-3-(5-methyl-1H-pyrazol-3-ylamino)-isoquinolin-1-ylamino]-benzonitrile] |  | 10 to 15000 |
| Cc1cc(Nc2cc3cc(OCCN4CCOCC4)ccc3c(-c3ccccc3)n2)n[nH]1 [Example 299, (5-Methyl-1H-pyrazol-3-yl)-[6-(2-morpholin-4-yl-ethoxy)-1-phenyl-isoquinolin-3-yl]-amine] |  | 10 to 15000 |
| COc1ccc2c(Sc3cccc(F)c3)nc(Nc3cc(C)[nH]n3)cc2c1 [Example 311, [1-(3-Fluoro-phenylsulfanyl)-6-methoxy-isoquinolin-3-yl]-(5-methyl-1H-pyrazol-3-yl)-amine] |  | 10 to 15000 |
| Cc1cc(Nc2cc3ccccc3c(Sc3ccccc3F)n2)n[nH]1 [Example 314, [1-(2-Fluoro-phenylsulfanyl)-isoquinolin-3-yl]-(5-methyl-1H-pyrazol-3-yl)-amine] |  | 10 to 15000 |
